PubChem BioAssay AID1259405 | NCATS | 2018

Purpose: 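Silenced genes that increase secreted GFP made by CHO cells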 (primary screen)
System: Chinese hamster CHO-K1 ovary cells with stable secreted eGFP expression
Reagents: single siRNA against mouse genes, 0.8 pmol siRNA per well (2 µl of 400 nM stock)
Time to read-out: 3 days
Measured: 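Per-well intracellular GFP measured by laser scanning cytometry, plus viability from ATP luminescence, each relative to plate median of non-targeting control wells, in %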
Scale: GFP, % of control: higher = more GFP per well, higher productivity; viability (ATP), % of control: higher = more viable cells (more ATP)
Hit rule: 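Called active when intracellular GFP, relative to negative control, is at or above 120%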
The whole screen tested about 50,000 reagents; shown is a part drawn at random. In the full data, about 4,000 (8%) are marked active. 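Mouse siRNA library applied to hamster cells; one well for each siRNA.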 Entries without a mark were called inactive. Reagents against one gene are numbered here. No sequences are given here.

Gnpat (GeneID 14712) #1 showed GFP, % of control 108; viability (ATP), % of control 94.6.
Knock-down of Gnpat (GeneID 14712) #2 came out at: GFP, % of control 41.5; viability (ATP), % of control 68.4.
With knock-down of Gnpat (GeneID 14712) #3, the screen gave GFP, % of control 99.3; viability (ATP), % of control 97.9.
With knock-down of Dgcr8 (GeneID 94223) #1 the results were GFP, % of control 89.5; viability (ATP), % of control 90.4.
Dgcr8 (GeneID 94223) #2 gave GFP, % of control 120 (active); viability (ATP), % of control 134.
After knock-down of Dgcr8 (GeneID 94223) #3, the record shows GFP, % of control 47; viability (ATP), % of control 68.2.
After knock-down of Ramp1 (GeneID 51801) #1, the screen gave GFP, % of control 68.5; viability (ATP), % of control 76.6.
Against Ramp1 (GeneID 51801) #2, the entry reads GFP, % of control 62.8; viability (ATP), % of control 58.5.
With knock-down of Ramp1 (GeneID 51801) #3, the record shows GFP, % of control 43.8; viability (ATP), % of control 53.3.
Silencing of Stk10 (GeneID 20868) resulted in: GFP, % of control 67.8; viability (ATP), % of control 47.8.
After knock-down of Lce1b (GeneID 68720) #1, the record shows GFP, % of control 105; viability (ATP), % of control 53.9.
Silencing of Lce1b (GeneID 68720) #2 came out at: GFP, % of control 69.9; viability (ATP), % of control 71.
Knock-down of Lce1b (GeneID 68720) #3 came out at: GFP, % of control 116; viability (ATP), % of control 99.5.
For Gse1 (GeneID 382034) #1 the deposit lists GFP, % of control 74.5; viability (ATP), % of control 61.6.
Against Gse1 (GeneID 382034) #2, the entry reads GFP, % of control 50.9; viability (ATP), % of control 74.6.
For Gse1 (GeneID 382034) #3, the entry reads GFP, % of control 180 (active); viability (ATP), % of control 83.1.
Knock-down of Tpr (GeneID 108989) #1 came out at: GFP, % of control 24.4; viability (ATP), % of control 38.3.
After knock-down of Tpr (GeneID 108989) #2, the record shows GFP, % of control 58.9; viability (ATP), % of control 94.4.
Against Tpr (GeneID 108989) #3 the deposit lists GFP, % of control 105; viability (ATP), % of control 135.
With knock-down of Cdkn1c (GeneID 12577) #1, the record shows GFP, % of control 67.9; viability (ATP), % of control 83.8.
Depletion of Cdkn1c (GeneID 12577) #2 came out at: GFP, % of control 76.3; viability (ATP), % of control 57.3.
Clcn4 (GeneID 12727) #1 gave GFP, % of control 74.6; viability (ATP), % of control 114.
With knock-down of Clcn4 (GeneID 12727) #2, the record shows GFP, % of control 68.1; viability (ATP), % of control 103.
Knock-down of Clcn4 (GeneID 12727) #3 resulted in: GFP, % of control 40.3; viability (ATP), % of control 58.4.
With knock-down of Mtss1 (GeneID 211401) #1 the results were GFP, % of control 78.6; viability (ATP), % of control 78.3.
Knock-down of Mtss1 (GeneID 211401) #2 gave: GFP, % of control 50.9; viability (ATP), % of control 90.
Mtss1 (GeneID 211401) #3 gave GFP, % of control 93.4; viability (ATP), % of control 68.8.
After knock-down of Ankrd39 (GeneID 109346) #1 the results were GFP, % of control 40.1; viability (ATP), % of control 62.2.
Knock-down of Ankrd39 (GeneID 109346) #2 gave: GFP, % of control 81; viability (ATP), % of control 84.9.
For Ankrd39 (GeneID 109346) #3, the entry reads GFP, % of control 101; viability (ATP), % of control 109.
With knock-down of Cercam (GeneID 99151) #1, the record shows GFP, % of control 63.7; viability (ATP), % of control 88.3.
Silencing of Cercam (GeneID 99151) #2 resulted in: GFP, % of control 68.6; viability (ATP), % of control 63.7.
For Cercam (GeneID 99151) #3, the entry reads GFP, % of control 72.5; viability (ATP), % of control 76.1.
With knock-down of Ikbip (GeneID 67454) #1, the screen gave GFP, % of control 94.6; viability (ATP), % of control 95.
For Ikbip (GeneID 67454) #2, the values are GFP, % of control 81.5; viability (ATP), % of control 94.5.
Against Ikbip (GeneID 67454) #3, the values are GFP, % of control 53.1; viability (ATP), % of control 23.3.
Silencing of Or52ae7 (GeneID 258751) #1 gave: GFP, % of control 74.7; viability (ATP), % of control 64.4.
With knock-down of Or52ae7 (GeneID 258751) #2, the screen gave GFP, % of control 89.1; viability (ATP), % of control 93.7.
For Or52ae7 (GeneID 258751) #3, the entry reads GFP, % of control 74.1; viability (ATP), % of control 65.3.
Silencing of Ppp1r21 (GeneID 73825) #1 resulted in: GFP, % of control 103; viability (ATP), % of control 102.
With knock-down of Ppp1r21 (GeneID 73825) #2 the results were GFP, % of control 124 (active); viability (ATP), % of control 102.
Against Ppp1r21 (GeneID 73825) #3 the deposit lists GFP, % of control 80.7; viability (ATP), % of control 79.2.
Wdr48 (GeneID 67561) #1 showed GFP, % of control 50.2; viability (ATP), % of control 58.9.
Depletion of Wdr48 (GeneID 67561) #2 resulted in: GFP, % of control 76; viability (ATP), % of control 69.6.
Wdr48 (GeneID 67561) #3 scored GFP, % of control 43; viability (ATP), % of control 68.1.
Slc35f1 (GeneID 215085) #1 scored GFP, % of control 88.6; viability (ATP), % of control 70.3.
Silencing of Slc35f1 (GeneID 215085) #2 came out at: GFP, % of control 45.5; viability (ATP), % of control 31.3.
For Slc35f1 (GeneID 215085) #3 the deposit lists GFP, % of control 61; viability (ATP), % of control 62.1.
For Gpank1 (GeneID 81845) #1, the values are GFP, % of control 67; viability (ATP), % of control 56.
Depletion of Gpank1 (GeneID 81845) #2 came out at: GFP, % of control 77.8; viability (ATP), % of control 68.6.
With knock-down of Gpank1 (GeneID 81845) #3, the screen gave GFP, % of control 230 (active); viability (ATP), % of control 126.
Knock-down of Ctnnbl1 (GeneID 66642) #1 came out at: GFP, % of control 78; viability (ATP), % of control 85.2.
For Ctnnbl1 (GeneID 66642) #2 the deposit lists GFP, % of control 44; viability (ATP), % of control 43.8.
Silencing of Ctnnbl1 (GeneID 66642) #3 gave: GFP, % of control 85.8; viability (ATP), % of control 108.

Entries above whose gene name begins with L or l:
Lce1b (GeneID 68720) #1 → GFP, % of control: 105; viability (ATP), % of control: 53.9
Lce1b (GeneID 68720) #2 → GFP, % of control: 69.9; viability (ATP), % of control: 71
Lce1b (GeneID 68720) #3 → GFP, % of control: 116; viability (ATP), % of control: 99.5
